# Measured values taken from the supplement of paper PMC8728848.
# This is one part of the list.
# B1: NanH (Corynebacterium diphtheriae), C6JSW6 (protein)
# chain: MYSSNRTYSRAILGLSAVLTLSFTSLVAPVNAEEPETVVPATAELEGEVAATLPSAETGLLDAAPPKPVARGAAGDLQLPAVNEKEVFEEGRVIRAPEPDQSRCYRIPALVTAKNGDLLLAFDNRYGGGDGAKTWCRDAPYENMKRINRQNMQTDIQLYRSVDNGQSFEDFGYIAQGTADVRELSYTDPALVTDRTTGKIFAFFVRAYDYRVGQSSAGFNEGDVEAEIQKRDVQDTVVVESLDGGQTWGNMRLLSALTAKVSSISTGDTIFDGRGRFVTSGAGIQLQYGEHAGRLIVPISVDIDPKDSAKFINLAIYSDDHGQTWQAGIGTAGGAGFSGDVSKIVELSDGRLMMSSKDNDKPRWVSYSEDQGENWSTPKRKIIAPPQHPEKHNTGINVGLIRAYPNAPENSAAARVLLYSAPIDQRYSHKHTEDGRNNGWVMGSCDDGKTWSFGRQIEKNRFQYSSMTVMSDGNIGMVYESGDFSTGMNLKFAKFNMAWLGADCHSNEALGLTGDIDKEIVEAQEKAAEATKEAQEAAEKVQKLTEELAAARKENDELKNQVKGFKEAVGDLANEAEDLADKVFKLETAVTEAKEKATVAEKAASDAVTQLQKAESIAEEQKAKAESAAAEAQALREKLERLEGSILTVKENPEAEEIADLSSTAKDAADAARRAATDANGALSGQKQDEEKPAMGLMGILKVLAGIIPLVAIIATIFQTFRLPFNIPGMR
# Tests used:
# Assay in all cases: glycan array binding signal (z-score within array); higher = stronger binding
# Details in all cases: glycan notation: IUPAC condensed, linker removed
# [1] = biological target: Fuc(a1-2)Gal
# In short: (§1)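 The Consortium for Functional Glycomics database supplied 3228 glycan arrays, of which those lacking an available protein sequence were dropped. The binding signal, a within-array Z-score, was averaged across arrays of the same protein sequence and across linkers. Negative scores can be read as non-binding.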
# [2] = biological target: Fuc(a1-2)Gal(b1-3)GalNAc
# In short: as §1
# [3] = biological target: Fuc(a1-2)Gal(b1-3)GalNAc(a1-3)[Fuc(a1-2)]Gal(b1-4)Glc
# In short: as §1
# [4] = biological target: Fuc(a1-2)Gal(b1-3)GalNAc(a1-3)[Fuc(a1-2)]Gal(b1-4)GlcNAc
# In short: as §1
# [5] = biological target: Fuc(a1-2)Gal(b1-3)GalNAc(b1-3)Gal
# In short: as §1
# [6] = biological target: Fuc(a1-2)Gal(b1-3)GalNAc(b1-3)Gal(a1-4)Gal(b1-4)Glc
# In short: as §1
# [7] = biological target: Fuc(a1-2)Gal(b1-3)GalNAc(b1-4)[Neu5Ac(a2-3)]Gal(b1-4)Glc
# In short: as §1
# [8] = biological target: Fuc(a1-2)Gal(b1-3)GlcNAc
# In short: as §1
# [9] = biological target: Fuc(a1-2)Gal(b1-3)GlcNAc(b1-2)Man(a1-3)[Fuc(a1-2)Gal(b1-3)GlcNAc(b1-2)Man(a1-6)]Man(b1-4)GlcNAc(b1-4)GlcNAc
# In short: as §1
# [10] = biological target: Fuc(a1-2)Gal(b1-3)GlcNAc(b1-2)Man(a1-3)[Fuc(a1-2)Gal(b1-3)GlcNAc(b1-2)Man(a1-6)]Man(b1-4)GlcNAc(b1-4)[Fuc(a1-6)]GlcNAc
# In short: as §1
# [11] = biological target: Fuc(a1-2)Gal(b1-3)GlcNAc(b1-3)Gal(b1-4)Glc
# In short: as §1
# [12] = biological target: Fuc(a1-2)Gal(b1-3)GlcNAc(b1-3)GalNAc
# In short: as §1
# [13] = biological target: Fuc(a1-2)Gal(b1-3)GlcNAc(b1-3)[Fuc(a1-3)[Gal(b1-4)]GlcNAc(b1-6)]Gal(b1-4)Glc
# In short: as §1
# [14] = biological target: Fuc(a1-2)Gal(b1-3)GlcNAc(b1-3)[Gal(b1-4)GlcNAc(b1-6)]Gal(b1-4)Glc
# In short: as §1
# [15] = biological target: Fuc(a1-2)Gal(b1-3)GlcNAc(b1-3)[Neu5Ac(a2-6)Gal(b1-4)GlcNAc(b1-6)]Gal(b1-4)Glc
# In short: as §1
# [16] = biological target: Fuc(a1-2)Gal(b1-3)[Fuc(a1-4)]GlcNAc
# In short: as §1
# [17] = biological target: Fuc(a1-2)Gal(b1-3)[Fuc(a1-4)]GlcNAc(b1-2)Man(a1-3)[Fuc(a1-2)Gal(b1-3)[Fuc(a1-4)]GlcNAc(b1-2)Man(a1-6)]Man(b1-4)GlcNAc(b1-4)GlcNAc
# In short: as §1
# [18] = biological target: Fuc(a1-2)Gal(b1-3)[Fuc(a1-4)]GlcNAc(b1-3)[Fuc(a1-3)[Gal(b1-4)]GlcNAc(b1-6)]Gal(b1-4)Glc
# In short: as §1
# [19] = biological target: Fuc(a1-2)Gal(b1-3)[Fuc(a1-4)]GlcNAc(b1-3)[Gal(b1-4)GlcNAc(b1-6)]Gal(b1-4)Glc
# In short: as §1
# [20] = biological target: Fuc(a1-2)Gal(b1-4)Glc
# In short: as §1
# [21] = biological target: Fuc(a1-2)Gal(b1-4)Glc6S
# In short: as §1
# [22] = biological target: Fuc(a1-2)Gal(b1-4)GlcNAc
# In short: as §1
# [23] = biological target: Fuc(a1-2)Gal(b1-4)GlcNAc(b1-2)Man(a1-3)[Fuc(a1-2)Gal(b1-4)GlcNAc(b1-2)Man(a1-6)]Man(b1-4)GlcNAc(b1-4)GlcNAc
# In short: as §1
# [24] = biological target: Fuc(a1-2)Gal(b1-4)GlcNAc(b1-2)Man(a1-3)[Fuc(a1-2)Gal(b1-4)GlcNAc(b1-2)Man(a1-6)]Man(b1-4)GlcNAc(b1-4)[Fuc(a1-6)]GlcNAc
# In short: as §1
# [25] = biological target: Fuc(a1-2)Gal(b1-4)GlcNAc(b1-2)[Fuc(a1-2)Gal(b1-4)GlcNAc(b1-4)]Man(a1-3)[Fuc(a1-2)Gal(b1-4)GlcNAc(b1-2)Man(a1-6)]Man(b1-4)GlcNAc(b1-4)GlcNAc
# In short: as §1
# [26] = biological target: Fuc(a1-2)Gal(b1-4)GlcNAc(b1-3)Gal(b1-4)GlcNAc
# In short: as §1
# [27] = biological target: Fuc(a1-2)Gal(b1-4)GlcNAc(b1-3)Gal(b1-4)GlcNAc(b1-3)Gal(b1-4)GlcNAc
# In short: as §1
# [28] = biological target: Fuc(a1-2)Gal(b1-4)GlcNAc(b1-3)GalNAc
# In short: as §1
# [29] = biological target: Fuc(a1-2)Gal(b1-4)GlcNAc(b1-3)[Fuc(a1-2)Gal(b1-4)GlcNAc(b1-6)]GalNAc
# In short: as §1
# [30] = biological target: Fuc(a1-2)Gal(b1-4)GlcNAc6S
# In short: as §1
# [31] = biological target: Fuc(a1-2)Gal(b1-4)[Fuc(a1-3)]GlcNAc
# In short: as §1
# [32] = biological target: Fuc(a1-2)Gal(b1-4)[Fuc(a1-3)]GlcNAc(b1-2)Man(a1-3)[Fuc(a1-2)Gal(b1-4)[Fuc(a1-3)]GlcNAc(b1-2)Man(a1-6)]Man(b1-4)GlcNAc(b1-4)GlcNAc
# In short: as §1
# [33] = biological target: Fuc(a1-2)Gal(b1-4)[Fuc(a1-3)]GlcNAc(b1-2)[Fuc(a1-2)Gal(b1-4)[Fuc(a1-3)]GlcNAc(b1-4)]Man(a1-3)[Fuc(a1-2)Gal(b1-4)[Fuc(a1-3)]GlcNAc(b1-2)Man(a1-6)]Man(b1-4)GlcNAc(b1-4)GlcNAc
# In short: as §1
# [34] = biological target: Fuc(a1-2)Gal(b1-4)[Fuc(a1-3)]GlcNAc(b1-3)Gal(b1-4)[Fuc(a1-3)]GlcNAc
# In short: as §1
# [35] = biological target: Fuc(a1-2)Gal(b1-4)[Fuc(a1-3)]GlcNAc(b1-3)Gal(b1-4)[Fuc(a1-3)]GlcNAc(b1-3)Gal(b1-4)[Fuc(a1-3)]GlcNAc
# In short: as §1
# [36] = biological target: Fuc(a1-2)Gal(b1-4)[Fuc(a1-3)]GlcNAc(b1-3)GalNAc
# In short: as §1
# [37] = biological target: Fuc(a1-2)Gal6S(b1-4)Glc
# In short: as §1
# [38] = biological target: Fuc(a1-2)Gal6S(b1-4)Glc6S
# In short: as §1
# [39] = biological target: Fuc(a1-2)Gal6S(b1-4)GlcNAc
# In short: as §1
# [40] = biological target: Fuc(a1-2)[Gal(a1-3)]Gal
# In short: as §1
# [41] = biological target: Fuc(a1-2)[Gal(a1-3)]Gal(b1-3)GalNAc
# In short: as §1
# [42] = biological target: Fuc(a1-2)[Gal(a1-3)]Gal(b1-3)GlcNAc
# In short: as §1
# [43] = biological target: Fuc(a1-2)[Gal(a1-3)]Gal(b1-3)GlcNAc(b1-2)Man(a1-3)[Fuc(a1-2)[Gal(a1-3)]Gal(b1-3)GlcNAc(b1-2)Man(a1-6)]Man(b1-4)GlcNAc(b1-4)GlcNAc
# In short: as §1
# [44] = biological target: Fuc(a1-2)[Gal(a1-3)]Gal(b1-3)GlcNAc(b1-2)Man(a1-3)[Fuc(a1-2)[Gal(a1-3)]Gal(b1-3)GlcNAc(b1-2)Man(a1-6)]Man(b1-4)GlcNAc(b1-4)[Fuc(a1-6)]GlcNAc
# In short: as §1
# [45] = biological target: Fuc(a1-2)[Gal(a1-3)]Gal(b1-3)GlcNAc(b1-3)GalNAc
# In short: as §1
binder,measurement,setting,value
B1,glycan array binding signal (z-score),[1],2.31
same,glycan array binding signal (z-score),[2],-0.163
same,glycan array binding signal (z-score),[3],-0.302
same,glycan array binding signal (z-score),[4],0.088
same,glycan array binding signal (z-score),[5],-0.678
same,glycan array binding signal (z-score),[6],-0.943
same,glycan array binding signal (z-score),[7],1.01
same,glycan array binding signal (z-score),[8],0.544
same,glycan array binding signal (z-score),[9],0.302
same,glycan array binding signal (z-score),[10],0.487
same,glycan array binding signal (z-score),[11],-0.417
same,glycan array binding signal (z-score),[12],0.539
same,glycan array binding signal (z-score),[13],-1.23
same,glycan array binding signal (z-score),[14],-0.487
same,glycan array binding signal (z-score),[15],0.171
same,glycan array binding signal (z-score),[16],-0.238
same,glycan array binding signal (z-score),[17],1.88
same,glycan array binding signal (z-score),[18],0.526
same,glycan array binding signal (z-score),[19],-0.64
same,glycan array binding signal (z-score),[20],0.081
same,glycan array binding signal (z-score),[21],-1.08
same,glycan array binding signal (z-score),[22],1.32
same,glycan array binding signal (z-score),[23],2.08
same,glycan array binding signal (z-score),[24],1.01
same,glycan array binding signal (z-score),[25],0.4
same,glycan array binding signal (z-score),[26],-1.26
same,glycan array binding signal (z-score),[27],-0.792
same,glycan array binding signal (z-score),[28],-0.349
same,glycan array binding signal (z-score),[29],1.09
same,glycan array binding signal (z-score),[30],-0.645
same,glycan array binding signal (z-score),[31],-0.122
same,glycan array binding signal (z-score),[32],0.226
same,glycan array binding signal (z-score),[33],0.792
same,glycan array binding signal (z-score),[34],-1.29
same,glycan array binding signal (z-score),[35],1.1
same,glycan array binding signal (z-score),[36],3.22
same,glycan array binding signal (z-score),[37],-0.89
same,glycan array binding signal (z-score),[38],-1.36
same,glycan array binding signal (z-score),[39],0.001
same,glycan array binding signal (z-score),[40],-0.268
same,glycan array binding signal (z-score),[41],0.386
same,glycan array binding signal (z-score),[42],0.503
same,glycan array binding signal (z-score),[43],-0.686
same,glycan array binding signal (z-score),[44],1.3
same,glycan array binding signal (z-score),[45],-1.14

# Fetched one by one from the list above:
binder,measurement,setting,value
B1,glycan array binding signal (z-score),[30],-0.645
same,glycan array binding signal (z-score),[32],0.226
same,glycan array binding signal (z-score),[20],0.081
